From US9226500B2, “Pesticidal compositions and processes related thereto” (Dow AgroSciences LLC, priority 2012, dated 2016)
At least one read-out could not be matched to a standard name with certainty. Some compounds share one range, which may span the group rather than tell each member.

Key:
[1] = system: Beet Armyworm (Spodoptera exigua); assay: Bioassay on Beet Armyworm (BAW), 128-well diet tray assay; type: in vivo; conditions: Table 5, Prophetic Compounds Subsequently Exemplified
Protocol: (§1) Certain molecules disclosed in this document were tested against BAW, CEW and CL using procedures described in the following examples. In the reporting of the results, the “BAW & CEW & CL Rating Table” was used (See Table Section).
Bioassays on BAW (Spodoptera exigua)
Bioassays on BAW were conducted using a 128-well diet tray assay. One to five second instar BAW larvae were placed in each well (3 mL) of the diet tray that had been previously filled with 1 mL of artificial diet to which 50 μg/cm^2 of the test compound (dissolved in 50 μL of 90:10 acetone-water mixture) had been applied (to each of eight wells) and then allowed to dry. Trays were covered with a clear self-adhesive cover, and held at 25° C., 14:10 light-dark for five to seven days. Percent mortality was recorded for the larvae in each well; activity in the eight wells was then averaged. The results are indicated in the tables entitled “Table 3: Assay Results Part 1” and “Table 4: Assay Results Part 2” (See Table Section).

[2] = system: Cabbage Looper (Trichoplusia ni); assay: Bioassay on Cabbage Looper (CL), 128-well diet tray assay; type: in vivo; conditions: Table 5, Prophetic Compounds Subsequently Exemplified
Protocol: as §1
Bioassays on CL (Trichoplusia ni)
Bioassays on CL were conducted using a 128-well diet tray assay. One to five second instar CL larvae were placed in each well (3 mL) of the diet tray that had been previously filled with 1 mL of artificial diet to which 50 μg/cm^2 of the test compound (dissolved in 50 μL of 90:10 acetone-water mixture) had been applied (to each of eight wells) and then allowed to dry. Trays were covered with a clear self-adhesive cover, and held at 25° C., 14:10 light-dark for five to seven days. Percent mortality was recorded for the larvae in each well; activity in the eight wells was then averaged.
“Table 4: Assay Results Part 2” (See Table Section).

## CC(NC(=O)c1ccc(/C=C/C(c2cc(Cl)c(Cl)c(Cl)c2)C(F)(F)F)cc1Br)C(=O)NCC(F)F (stereo not drawn) [Compound P1611A]
[1]
  BAW Rating: A (50-100)
[2]
  CL Rating: A (50-100)

## CC(NC(=O)c1ccc(/C=C/C(c2cc(Cl)c(Cl)c(Cl)c2)C(F)(F)F)cc1C(F)(F)F)C(=O)NCC(F)F (stereo not drawn) [Compound P1613A]
[1]
  BAW Rating: A (50-100)
[2]
  CL Rating: A (50-100)

## CC(NC(=O)c1ccc(/C=C/C(c2cc(Cl)c(Cl)c(Cl)c2)C(F)(F)F)cc1Br)C(=O)NCCF (stereo not drawn) [Compound P1616A]
[1]
  BAW Rating: A (50-100)
[2]
  CL Rating: A (50-100)

## C[C@@H](NC(=O)c1ccc(/C=C/C(c2cc(Cl)c(Cl)c(Cl)c2)C(F)(F)F)cc1Br)C(=O)NCCF (stereo partly drawn) [Compound P1616]
[1]
  BAW Rating: A (50-100)
[2]
  CL Rating: A (50-100)

## CC(NC(=O)c1ccc(/C=C/C(c2cc(Cl)c(Cl)c(Cl)c2)C(F)(F)F)cc1C(F)(F)F)C(=O)NCCF (stereo not drawn) [Compound P1618A, (E)-N-(1-((2-Fluoroethyl)amino)-1-oxopropan-2-yl)-4-(4,4,4-trifluoro-3-(3,4,5-trichlorophenyl)but-1-en-1-yl)-2-(trifluoromethyl)benzamide]
[1]
  BAW Rating: A (50-100)
[2]
  CL Rating: A (50-100)

## CCNC(=O)[C@@H](C)NC(=O)c1ccc(/C=C/C(c2cc(Cl)c(Cl)c(Cl)c2)C(F)(F)F)cc1Br (stereo partly drawn) [Compound P1621]
[1]
  BAW Rating: A (50-100)
[2]
  CL Rating: A (50-100)

## CCNC(=O)[C@@H](C)NC(=O)c1ccc(/C=C/C(c2cc(Cl)c(Cl)c(Cl)c2)C(F)(F)F)cc1C(F)(F)F (stereo partly drawn) [Compound P1623]
[1]
  BAW Rating: A (50-100)
[2]
  CL Rating: A (50-100)

## CCNC(=O)[C@@H](C)NC(=O)c1ccc(/C=C/C(c2cc(Cl)c(Cl)c(Cl)c2)C(F)(F)F)cc1C (stereo partly drawn) [Compound P1624]
[1]
  BAW Rating: A (50-100)
[2]
  CL Rating: A (50-100)

## CC(NC(=O)c1ccc(/C=C/C(c2cc(Cl)c(Cl)c(Cl)c2)C(F)(F)F)cc1Br)C(=O)NCCC(F)(F)F (stereo not drawn) [Compound P1631A]
[1]
  BAW Rating: A (50-100)
[2]
  CL Rating: A (50-100)

## CC(NC(=O)c1ccc(/C=C/C(c2cc(Cl)c(Cl)c(Cl)c2)C(F)(F)F)cc1C(F)(F)F)C(=O)NCCC(F)(F)F (stereo not drawn) [Compound P1633A]
[1]
  BAW Rating: A (50-100)
[2]
  CL Rating: A (50-100)

## CC(C)(NC(=O)c1ccc(/C=C/C(c2cc(Cl)c(Cl)c(Cl)c2)C(F)(F)F)cc1)C(=O)NCC(F)(F)F (stereo not drawn) [Compound P1636A]
[1]
  BAW Rating: A (50-100)
[2]
  CL Rating: A (50-100)

## O=C(CCNC(=O)c1ccc(/C=C/C(c2cc(Cl)c(Cl)c(Cl)c2)C(F)(F)F)cc1Br)NCC(F)(F)F (stereo not drawn) [Compound P1638]
[1]
  BAW Rating: A (50-100)
[2]
  CL Rating: A (50-100)

## Cc1cc(/C=C/C(c2cc(Cl)c(Cl)c(Cl)c2)C(F)(F)F)ccc1C(=O)NCCC(=O)NCC(F)(F)F (stereo not drawn) [Compound P1641]
[1]
  BAW Rating: A (50-100)
[2]
  CL Rating: A (50-100)

## C[C@@H](NC(=O)c1ccc(/C=C/C(c2cc(Cl)cc(Cl)c2)C(F)(F)C(F)(F)F)cc1Br)C(=O)NCC(F)(F)F (stereo partly drawn) [Compound P1691]
[1]
  BAW Rating: A (50-100)
[2]
  CL Rating: A (50-100)

## C[C@@H](NC(=O)c1ccc(/C=C/C(c2cc(Cl)cc(Cl)c2)C(F)(F)C(F)(F)F)cc1C(F)(F)F)C(=O)NCC(F)(F)F (stereo partly drawn) [Compound P1693]
[1]
  BAW Rating: A (50-100)
[2]
  CL Rating: A (50-100)

## C[C@@H](NC(=O)c1ccc(/C=C/C(c2cc(Cl)cc(Cl)c2)C(F)(F)F)cc1Br)C(=O)NCC(F)(F)F (stereo partly drawn) [Compound P1696]
[1]
  BAW Rating: A (50-100)
[2]
  CL Rating: A (50-100)

## C[C@@H](NC(=O)c1ccc(/C=C/C(c2cc(Cl)cc(Cl)c2)C(F)(F)F)cc1C(F)(F)F)C(=O)NCC(F)(F)F (stereo partly drawn) [Compound P1698]
[1]
  BAW Rating: A (50-100)
[2]
  CL Rating: A (50-100)

## O=C(CNC(=O)c1ccc(/C=C/C(c2ccc(Cl)c(Cl)c2)C(F)(F)F)cc1Br)NCC(F)(F)F (stereo not drawn) [Compound P1776]
[1]
  BAW Rating: A (50-100)
[2]
  CL Rating: A (50-100)
